Values of other authors, collected in patent US9133208B2, “Radiolabelled rotenone derivatives and their use in SPECT imaging” (priority 2011, dated 2015).
For at least one compound, name, drawing or mass did not settle the structure.

Details: cited from earlier work

Row | SMILES | slope of fitted linear line to maximal uptake data (Marshall et al.)
1 | [C-]#[N+]CC(C)(C)OC.[C-]#[N+]CC(C)(C)OC.[C-]#[N+]CC(C)(C)OC.[C-]#[N+]CC(C)(C)OC.[C-]#[N+]CC(C)(C)OC.[C-]#[N+]CC(C)(C)OC.[Tc] [^99mTc-sestamibi] | 0.29
2 | COc1cc2c(cc1OC)C1C(=O)c3ccc4c(c3OC1CO2)CC(/C(C)=C\[125I])O4 (centres unmarked) [^125I-rotenone, 7′-Z-[^125I]iodorotenone] | 0.78
